Measurements published in patent US10150734B2, “Solid forms of 2-(5-(3-fluorophenyl)-3-hydroxypicolinamido)acetic acid, compositions, and uses thereof” (Akebia Therapeutics, Inc., priority 2015, dated 2018).
Some of these results come from one statement about several compounds together. At least one structure is not confirmed: it was looked up by name or label, or the drawing left a doubt.

Experiment: Aqueous solubility (slurry in deionized water at room temperature, filtrate by HPLC, solids by XRPD)
Conditions: equilibrated with stirring

Q: For `O.O=C([O-])CNC(=O)c1ncc(-c2cccc(F)c2)cc1O.[Na+]` [Salt IV], which Solubility is on record?
A: > 19 mg/mL
